Screening data

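Vaccinia-infected cells with a two-color viral stage reporter; Venus fluorescence read on a plate reader; the cell line is not named here; timing not stated here. The test concentration is not given here. Percent change in Venus reporter signal; lower (more negative) values mean stronger inhibition of that viral stage.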

Values are in %. How 0% and 100% were set is not given here. Common to all entries: measured here: Venus reporter, other viral stage. This is a side read-out of the assay, for part of the compounds, not drawn at random.

{"structure": "CC(C)C#Cc1ccc([C@@H]2[C@H](CO)N3CCCCN(C(=O)c4ccc(F)cc4)C[C@@H]23)cc1", "activity change (Venus) (%)": "-56.97"}
{"structure": "C[C@H]1CCCCO[C@@H](CN(C)S(=O)(=O)c2ccc(Cl)cc2)[C@@H](C)CN([C@@H](C)CO)C(=O)c2cc(NS(=O)(=O)c3ccc(F)cc3)ccc2O1", "activity change (Venus) (%)": "-24.14"}
{"structure": "O=C(c1cccnc1)N1CCCCN2[C@H](CO)[C@@H](c3ccc(C#Cc4ccccc4)cc3)[C@H]2C1", "activity change (Venus) (%)": "-23.92"}
{"structure": "COc1ccc2c3c([nH]c2c1)[C@@H](CO)N(C(C)=O)CC31CCN(Cc2cc(-c3ccccc3)on2)CC1", "activity change (Venus) (%)": "-49.29"}
{"structure": "C[C@H]1CCCCO[C@H](CN(C)Cc2ccccc2)[C@@H](C)CN([C@@H](C)CO)C(=O)c2cc(NC(=O)Nc3ccccc3)ccc2O1", "activity change (Venus) (%)": "-57.79"}
{"structure": "COc1ccc(S(=O)(=O)N(C)C[C@H]2Oc3cc(C#CC4CCCCC4)ccc3S(=O)(=O)N([C@H](C)CO)C[C@H]2C)cc1", "activity change (Venus) (%)": "-31"}
{"structure": "C=CCNC(=O)[C@H]1[C@@H]2C(=O)O[C@@H](c3ccccc3)[C@@H](c3ccccc3)N2[C@@H](c2ccccc2OCCO)[C@]12C(=O)Nc1ccc(C#CC3(O)CCCCCC3)cc12", "activity change (Venus) (%)": "-46.22"}
{"structure": "COc1ccccc1CNC(=O)C[C@@H]1CC[C@H]2[C@@H](COC[C@H](O)CN2C(=O)Nc2ccc(C(F)(F)F)cc2)O1", "activity change (Venus) (%)": "-28.59"}
{"structure": "Cc1noc(C)c1NC(=O)Nc1ccc2c(c1)C(=O)N([C@H](C)CO)C[C@H](C)[C@H](CN(C)Cc1ccc(C(F)(F)F)cc1)OCCCC[C@H](C)O2", "activity change (Venus) (%)": "-49.48"}
{"structure": "C[C@@H]1CN([C@H](C)CO)C(=O)c2cc(NC(=O)Nc3ccccc3)ccc2O[C@@H](C)CCCCO[C@@H]1CN(C)Cc1ccccc1", "activity change (Venus) (%)": "-54.29"}
{"structure": "C[C@@H]1CN([C@H](C)CO)C(=O)c2c(c3ccccc3n2C)-c2ccccc2CO[C@@H]1CN(C)CC1CCCCC1", "activity change (Venus) (%)": "-60.94"}
{"structure": "COc1ccc(S(=O)(=O)Nc2ccc3c(c2)C(=O)N([C@@H](C)CO)C[C@H](C)[C@H](CN(C)C(=O)C2CCCCC2)OCCCC[C@H](C)O3)cc1", "activity change (Venus) (%)": "-47.95"}
{"structure": "O=C(c1ccccc1)N1CC[C@H]2[C@H](CO)Nc3ccc(C#Cc4ccccc4F)cc3[C@H]21", "activity change (Venus) (%)": "-41.93"}
{"structure": "Cc1ccc(S(=O)(=O)N(C)C[C@@H]2OCCCC[C@@H](C)Oc3ccc(NS(=O)(=O)c4cccs4)cc3C(=O)N([C@H](C)CO)C[C@H]2C)cc1", "activity change (Venus) (%)": "-49.93"}
{"structure": "C[C@H](CO)N1C[C@H](C)[C@H](CN(C)Cc2ccc3c(c2)OCO3)Oc2ncc(C#Cc3ccccc3)cc2C1=O", "activity change (Venus) (%)": "-24.22"}
{"structure": "C[C@@H]1CN([C@@H](C)CO)C(=O)c2cc(NS(=O)(=O)c3ccccc3)ccc2O[C@@H](C)CCCCO[C@@H]1CN(C)Cc1ccc2c(c1)OCO2", "activity change (Venus) (%)": "-46.59"}
{"structure": "COc1cccc(CN2C[C@@H]3N[C@H](C2)C3c2ccc(-c3ccccc3OC)cc2)c1", "stereo": "stereo not given in full", "activity change (Venus) (%)": "-62.02"}
{"structure": "CN(C)C(=O)c1ccc(-c2ccc(C3[C@@H]4CN(C(=O)C5CCCC5)C[C@H]3N4)cc2)cc1", "stereo": "stereo not given in full", "activity change (Venus) (%)": "-29.57"}
{"structure": "C[C@H]1CN([C@@H](C)CO)S(=O)(=O)c2ccc(C#CC3CCCC3)cc2O[C@H]1CN(C)C(=O)Cc1ccccc1", "activity change (Venus) (%)": "-30.04"}
{"structure": "C[C@@H]1CN([C@H](C)CO)S(=O)(=O)c2ccc(C3=CCCCC3)cc2O[C@@H]1CN(C)C(=O)Cc1ccncc1", "activity change (Venus) (%)": "-27.28"}
{"structure": "C[C@@H]1CN([C@@H](C)CO)C(=O)c2cc(NC(=O)Nc3ccc(C(F)(F)F)cc3)ccc2O[C@@H](C)CCCCO[C@H]1CN(C)Cc1ccccc1", "activity change (Venus) (%)": "-21.12"}
{"structure": "CC(C)NC(=O)Nc1ccc2c(c1)C(=O)N([C@H](C)CO)C[C@@H](C)[C@H](CN(C)S(=O)(=O)c1ccc(Cl)cc1)OCCCC[C@H](C)O2", "activity change (Venus) (%)": "-35.2"}
{"structure": "C[C@@H]1CN([C@@H](C)CO)S(=O)(=O)c2ccc(C3=CCCCC3)cc2O[C@@H]1CN(C)Cc1ccccn1", "activity change (Venus) (%)": "-68.4"}
{"structure": "O=C([C@@H]1N[C@@H]2c3ccc(-c4ccccc4F)c(=O)n3C[C@@H]2[C@H]1CO)N1CCc2ccccc2C1", "activity change (Venus) (%)": "-23.92"}
{"structure": "COc1ccc(NC(=O)Nc2ccc3c(c2)C(=O)N([C@H](C)CO)C[C@H](C)[C@@H](CN(C)Cc2ccc(C(F)(F)F)cc2)OCCCC[C@@H](C)O3)cc1", "activity change (Venus) (%)": "-35.96"}
{"structure": "COc1ccc(S(=O)(=O)Nc2ccc3c(c2)C(=O)N([C@H](C)CO)C[C@@H](C)[C@H](CN(C)S(=O)(=O)c2ccc(F)cc2)OCCCC[C@@H](C)O3)cc1", "activity change (Venus) (%)": "-42.05"}

3 of the entries, repeated:

structure	activity change (Venus) (%)
O=C(c1ccccc1)N1CC[C@H]2[C@H](CO)Nc3ccc(C#Cc4ccccc4F)cc3[C@H]21	-41.93
COc1ccc2c3c([nH]c2c1)[C@@H](CO)N(C(C)=O)CC31CCN(Cc2cc(-c3ccccc3)on2)CC1	-49.29
O=C([C@@H]1N[C@@H]2c3ccc(-c4ccccc4F)c(=O)n3C[C@@H]2[C@H]1CO)N1CCc2ccccc2C1	-23.92

Data taken from PubChem BioAssay AID1053133, deposited by Broad Institute (2014).